Laboratory results reported in doi:10.1101/2021.10.31.466654.

Sequences of proteins named here, by UniProt entry; tags and fusion partners are left off. Residues count along the entry.
UniProt P07237, residues 18-508: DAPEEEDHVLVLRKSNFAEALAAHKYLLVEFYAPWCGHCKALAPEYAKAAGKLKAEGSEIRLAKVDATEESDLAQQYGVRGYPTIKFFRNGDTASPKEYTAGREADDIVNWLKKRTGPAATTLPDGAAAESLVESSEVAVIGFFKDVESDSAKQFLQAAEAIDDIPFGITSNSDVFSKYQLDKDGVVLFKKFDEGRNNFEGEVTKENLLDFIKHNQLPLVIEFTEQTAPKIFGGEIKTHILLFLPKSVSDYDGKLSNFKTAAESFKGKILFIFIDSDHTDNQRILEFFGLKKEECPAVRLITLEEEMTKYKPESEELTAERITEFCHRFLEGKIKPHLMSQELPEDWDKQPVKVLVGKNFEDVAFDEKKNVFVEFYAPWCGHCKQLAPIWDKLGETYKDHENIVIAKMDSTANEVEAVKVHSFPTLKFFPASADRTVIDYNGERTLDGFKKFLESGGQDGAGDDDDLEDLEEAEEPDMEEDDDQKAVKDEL

Molecular target: NKp46-Ig (extracellular domain of NKp46 fused to the Fc region of human IgG1) (human) (UniProt O76036)
Experiment: affinity purification with mass spectrometry

Substance	binding
calreticulin (CRT), endogenous in JEG-3 (from UniProt P27797 18-417)	binds
protein disulfide isomerase PDIA1, endogenous in JEG-3 (from UniProt P07237 18-508)	binds

No constants are given. Whether binding was seen depends on the method and setting. Binding seen in cells or lysates may run through a third protein. A yes stands for co-enrichment or nearness to the bait. Other partners may have been found.
